PubChem BioAssay AID1487 (National Center for Advancing Translational Sciences (NCATS), 2009)
Values joined by “and” are separate entries in the source; they are usually repeats but may differ in a detail not shown here. Equal values may be shown once. Some of the results follow. Further columns of the screen follow, without active or inactive calls. The list favours compounds with an active or inconclusive main result. Potencies come from curve fits of mixed quality, noted in brackets.

Assay: qHTS Assay for Modulators of Lamin A Splicing
Details: HeLa LMNA splicing GFP/RFP minigene ratio, 48 h
How it was run: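 Read-out is the ratio of GFP to DsRed2 object intensity, acquired by 488 nm laser-scanning cytometry on HeLa lamin A-EGFP minigene reporter cells. Compound incubation 48 hrs at 37 °C in Opti-MEM with 2% FBS; DMSO 0.5% final.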

[1] = measured here: GFP splicing reporter channel
[2] = measured here: RFP viability control channel

Row | SMILES | AC50 [1] | AC50 [2]
1 | Cc1nc2c(=O)n(C)c(=O)n(C)c2nc1Cl | 3.16 µM [rising, full curve] | 3.55 µM [rising, full curve]
2 | COc1ccc(N2CCN(C(c3ccccc3OC)c3nnnn3C3CCCC3)CC2)cc1 (stereo unspecified) |  | 7.08 µM [rising, partial curve]
3 | CCOC(=O)c1c(NC(=O)c2ccc(S(=O)(=O)N3CCCC(C)C3)cc2)sc2c1CC(C)(C)NC2(C)C (stereo unspecified) | 14.1 µM [falling, partial curve] | 25.1 µM [falling, partial curve, poor fit]
4 | Cc1ccc(-n2ncc3c(Nc4ccc5c(c4)OCCO5)ncnc32)cc1Cl | 0.01 µM [falling, full curve, poor fit] | 
5 | O=C(NCC1CCCO1)C1CCC(N2C(=O)c3ccccc3C2=O)CC1 (stereo unspecified) |  | 5.01 µM [rising, single point]
6 | COc1ccc(C(C)=O)cc1CSc1nnc(Nc2ccccc2)s1 |  | 12.6 µM [rising, partial curve]
7 | COc1cc(OC)cc(C(=O)Nc2ccc3c(c2)CCCN3C(=O)c2cccs2)c1 | 0.316 µM [falling, partial curve, poor fit] | 
8 | CC(=O)NCC1CCCN(Cc2cn(-c3ccccc3)nc2-c2ccc3c(c2)OCO3)C1 (stereo unspecified) | 3.98 µM [falling, partial curve, poor fit] | 
9 | CNC(=O)c1ccc(NC(=O)c2cccc(C(F)(F)F)c2)cc1 | 0.891 µM [falling, full curve, poor fit] | 
10 | COCCNC(=S)N/N=C(\C)CCc1ccc2c(c1)OCO2 | 35.5 µM [rising, single point] | 
11 | COc1ccc(OC)c(NC(=O)CSc2nnnn2-c2ccc3c(c2)OCO3)c1 |  | 35.5 µM [falling, single point]
12 | CC/C(=C(\c1ccccc1)c1ccc(OCCN(C)C)cc1)c1ccccc1 | 7.94 µM [falling, partial curve] and 28.2 µM [falling, single point] | 7.08 µM [falling, partial curve] and 25.1 µM [falling, partial curve, poor fit]
13 | CC(=O)Nc1ccccc1OCC(=O)NC(C)c1ccc(F)cc1 (stereo unspecified) |  | 10 µM [rising, partial curve]
14 | C/C(=N/NC(=O)c1cccc(N2CCCC2=O)c1)c1ccncc1 | 35.5 µM [falling, single point] | 
15 | CN(C)CCc1c[nH]c2ccc(CC3COC(=O)N3)cc12 (stereo unspecified) | 3.16 µM [rising, partial curve] | 
16 | COc1c(C)cc(C(=O)C2CCCN(C(=O)c3ccc4[nH]ccc4c3)C2)cc1C (stereo unspecified) | 0.0316 µM [falling, full curve, poor fit] | 0.0355 µM [falling, full curve, poor fit]
17 | COCCn1c(C)nnc1SCC(=O)Nc1ccccc1[N+](=O)[O-] | 0.0224 µM [falling, full curve, poor fit] | 10 µM [falling, partial curve, poor fit]

In another format: eight of the compounds above

| Row | SMILES | AC50 [1] | AC50 [2] |
| --- | --- | --- | --- |
| 1 | Cc1nc2c(=O)n(C)c(=O)n(C)c2nc1Cl | 3.16 µM [rising, full curve] | 3.55 µM [rising, full curve] |
| 2 | COc1ccc(N2CCN(C(c3ccccc3OC)c3nnnn3C3CCCC3)CC2)cc1 (stereo unspecified) |  | 7.08 µM [rising, partial curve] |
| 3 | CCOC(=O)c1c(NC(=O)c2ccc(S(=O)(=O)N3CCCC(C)C3)cc2)sc2c1CC(C)(C)NC2(C)C (stereo unspecified) | 14.1 µM [falling, partial curve] | 25.1 µM [falling, partial curve, poor fit] |
| 4 | Cc1ccc(-n2ncc3c(Nc4ccc5c(c4)OCCO5)ncnc32)cc1Cl | 0.01 µM [falling, full curve, poor fit] |  |
| 5 | O=C(NCC1CCCO1)C1CCC(N2C(=O)c3ccccc3C2=O)CC1 (stereo unspecified) |  | 5.01 µM [rising, single point] |
| 6 | COc1ccc(C(C)=O)cc1CSc1nnc(Nc2ccccc2)s1 |  | 12.6 µM [rising, partial curve] |
| 7 | COc1cc(OC)cc(C(=O)Nc2ccc3c(c2)CCCN3C(=O)c2cccs2)c1 | 0.316 µM [falling, partial curve, poor fit] |  |
| 8 | CC(=O)NCC1CCCN(Cc2cn(-c3ccccc3)nc2-c2ccc3c(c2)OCO3)C1 (stereo unspecified) | 3.98 µM [falling, partial curve, poor fit] |  |

Additional results:

Row | SMILES | AC50 [1] | AC50 [2]
18 | OC(COCC1CC=CCC1)Cn1cnc2ccccc21 (stereo unspecified) |  | 35.5 µM [rising, single point]
19 | Fc1ccccc1-c1csc(=Nc2cccnc2)n1CC1CCCO1 (stereo unspecified) | 10 µM [rising, partial curve] | 12.6 µM [rising, partial curve]
20 | Cc1cccc(C(=O)N2CCc3cc(CNC(=O)c4ccco4)ccc32)c1 |  | 3.55 µM [falling, full curve]
21 | CCc1oc2ccccc2c1C(=O)c1cc(Br)c(O)c(Br)c1 | 0.1 µM [falling, full curve, poor fit] | 14.1 µM [falling, single point] and 44.7 nM [rising, full curve, poor fit] and 8.91 µM [rising, partial curve]
22 | O=C(N/N=C/c1ccc2c(c1)OCO2)c1cc(-c2ccccc2)nc2ccccc12 |  | 35.5 µM [rising, single point]
23 | O=C(Nc1cccnc1)c1ccc(S(=O)(=O)c2ccc(Cl)cc2)cc1 |  | 0.00501 µM [falling, full curve, poor fit]
24 | O=S(=O)(c1ccc2ccccc2c1)N1CCC(c2nc(-c3ccncc3)no2)CC1 | 3.98 µM [rising, full curve, poor fit] | 3.16 µM [rising, partial curve]
25 | Cc1ccc(S(=O)(=O)N2CCN(Cc3ccccc3)CC2)c(C)c1N(C)S(=O)(=O)c1ccccc1 | 11.2 µM [rising, partial curve] | 11.2 µM [rising, partial curve]
26 | O=C(Nc1ccc2cn[nH]c2c1)c1ccc(S(=O)(=O)N2CCOCC2)cc1 | 1.58 µM [rising, partial curve, poor fit] | 
27 | CC(=O)N1CCCc2cc(S(=O)(=O)Nc3ccc(Cl)cc3F)ccc21 | 11.2 µM [falling, single point] | 12.6 µM [falling, single point]
28 | CN(C)c1ccc(/C=C(\Cl)c2nc3ccccc3s2)cc1 |  | 35.5 µM [rising, single point]
29 | COc1ccc(CC(=O)N2CCc3c([nH]c4ccccc34)C2c2ccc(SC)cc2)cc1 (stereo unspecified) | 0.398 µM [rising, partial curve, poor fit] | 0.282 µM [rising, full curve, poor fit]
30 | CN(C)c1cccc(C(=O)OCc2cc(=O)oc3cc(O)ccc23)c1 |  | 35.5 µM [rising, single point]
31 | Cc1ccc2c(Cl)c(C(=O)Nc3cccnc3)sc2c1 | 11.2 µM [rising, partial curve] | 12.6 µM [rising, partial curve]
32 | N/C(=N\OC(=O)Cc1ccccc1[N+](=O)[O-])c1cccnc1 |  | 5.01 µM [rising, single point]
33 | COc1ccccc1NC(=O)CSc1nnc(Cn2nnc(-c3ccccc3)n2)n1-c1ccccc1 | 35.5 µM [rising, single point] | 15.8 µM [rising, single point]
